PubChem BioAssay AID1159584 – Peter MacCallum Cancer Centre – 2016

Assay: 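Genes that CDH1-null MCF10A cells selectively depend on to survive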 (primary screen)
Cell system: human MCF10A breast epithelial cells, parental and CDH1-null
Reagents: siRNA against human genes
Detection: 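Cell viability by CellTiter-Glo ATP luminescence, each line scaled to the mean of mock wells across plates, then CDH1-null over parental ratio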
Scale: CDH1-null / parental viability ratio: higher = CDH1-null cells survive relatively better than parental; CDH1-null viability vs mock: higher = more viable CDH1-null cells; parental viability vs mock: higher = more viable parental cells
The deposit covers about 18,000 reagents; this is a random part of them. No sequences are given here. The record does not give: the amount of reagent, the time to read-out.

no.	Gene	CDH1-null / parental viability ratio	CDH1-null viability vs mock (fraction of mock)	parental viability vs mock (fraction of mock)
1	HSD17B10 (hydroxysteroid 17-beta dehydrogenase 10)	0.81	0.7	0.86
2	KIFBP (kinesin family binding protein)	1.27	1.04	0.82
3	DFFB (DNA fragmentation factor subunit beta)	1.16	1.02	0.88
4	CYP1A2 (cytochrome P450 family 1 subfamily A member 2)	1.04	0.84	0.81
5	COA6 (cytochrome c oxidase assembly factor 6)	0.92	0.8	0.87
6	ZNF536 (zinc finger protein 536)	0.86	0.76	0.88
7	SRMS	0.94	0.67	0.71
8	CHRDL2 (chordin like 2)	0.84	0.84	1
9	ABI1 (abl interactor 1)	1.11	0.4	0.36
10	ERAP1 (endoplasmic reticulum aminopeptidase 1)	1.19	0.68	0.57
11	ANKRD10 (ankyrin repeat domain 10)	0.94	0.66	0.7
12	ZNF791 (zinc finger protein 791)	1.01	0.83	0.82
13	DSCC1	1.06	0.9	0.85
14	NAA80 (N-alpha-acetyltransferase 80, NatH catalytic subunit)	1.08	0.95	0.88
15	ANKRD7 (ankyrin repeat domain 7)	1.89	1.21	0.64
16	SPC25 (SPC25 component of NDC80 kinetochore complex)	1.04	0.49	0.47
17	CTSL (cathepsin L)	1.27	0.76	0.6
18	STX4 (syntaxin 4)	1.22	0.73	0.6
19	MTERF4 (mitochondrial transcription termination factor 4)	0.85	0.56	0.66
20	NOXRED1 (NADP dependent oxidoreductase domain containing 1)	0.87	0.8	0.92
21	TMEM209 (transmembrane protein 209)	0.97	0.92	0.95
22	ADGRE3 (adhesion G protein-coupled receptor E3)	1.33	0.88	0.66
23	CSKMT (citrate synthase lysine methyltransferase)	1.1	0.66	0.6
24	HCN3	1.26	0.98	0.78
25	KLF10 (KLF transcription factor 10)	1.08	1.08	1
26	MYH8 (myosin heavy chain 8)	0.86	0.62	0.72
27	ZNF630 (zinc finger protein 630)	1.33	0.76	0.57
28	ZUP1 (zinc finger containing ubiquitin peptidase 1)	1.14	0.96	0.84
29	PRSS8 (serine protease 8)	1.21	0.94	0.78
30	GABPB1 (GA binding protein transcription factor subunit beta 1)	1.1	1.03	0.94
31	PARVA (parvin alpha)	1.3	1.04	0.8
32	AP1M1 (adaptor related protein complex 1 subunit mu 1)	1.04	0.57	0.55
33	CCND1 (cyclin D1)	0.81	0.58	0.72
34	CAMSAP2	0.86	0.8	0.93
35	LHX9 (LIM homeobox 9)	1.12	0.74	0.66
36	PHF20L1 (PHD finger protein 20 like 1)	0.93	0.98	1.05
37	B3GNT9	1.02	0.96	0.94
38	ARPC2 (actin related protein 2/3 complex subunit 2)	1.22	1.09	0.89
39	CCNH (cyclin H)	0.96	1.12	1.17

5 entries from above, reduced to “CDH1-null viability vs mock (fraction of mock)”.
DFFB (DNA fragmentation factor subunit beta): 1.02
CYP1A2 (cytochrome P450 family 1 subfamily A member 2): 0.84
COA6 (cytochrome c oxidase assembly factor 6): 0.8
ZNF536 (zinc finger protein 536): 0.76
SRMS: 0.67

Further records:
no.	Gene	CDH1-null / parental viability ratio	CDH1-null viability vs mock (fraction of mock)	parental viability vs mock (fraction of mock)
40	FRMD3 (FERM domain containing 3)	0.87	0.68	0.78
41	MSL2 (MSL complex subunit 2)	0.83	0.62	0.75
42	MALSU1 (mitochondrial assembly of ribosomal large subunit 1)	0.86	1	1.16
43	SPAG17 (sperm associated antigen 17)	0.97	0.84	0.87
44	ATAD1 (ATPase family AAA domain containing 1)	0.82	0.46	0.56
45	SAMM50 (SAMM50 sorting and assembly machinery component)	1.16	0.72	0.62
46	HOOK2 (hook microtubule tethering protein 2)	1.13	0.7	0.62
47	TMEM248 (transmembrane protein 248)	1	0.98	0.98
48	STK35 (serine/threonine kinase 35)	0.79	0.66	0.84
49	MAGOHB (mago homolog B, exon junction complex subunit)	1.06	1	0.94
50	HOXA6 (homeobox A6)	0.75	0.48	0.64
51	NUP210L (nucleoporin 210 like)	0.98	0.86	0.88
52	FLACC1 (flagellum associated containing coiled-coil domains 1)	1.15	0.62	0.54
53	NRBF2 (nuclear receptor binding factor 2)	1.17	0.77	0.66
54	TRHDE (thyrotropin releasing hormone degrading enzyme)	1.12	1.02	0.91
55	PKN3 (protein kinase N3)	0.87	0.66	0.76
56	LHX4 (LIM homeobox 4)	0.85	0.68	0.8
57	FEZ1 (fasciculation and elongation protein zeta 1)	0.98	0.52	0.53
58	PTH2 (parathyroid hormone 2)	0.98	0.47	0.48
59	ZNF91 (zinc finger protein 91)	1.09	0.76	0.7
60	SRSF8 (serine and arginine rich splicing factor 8)	1.17	0.82	0.7
61	KLK4 (kallikrein related peptidase 4)	0.98	0.86	0.88
62	TIGD2 (tigger transposable element derived 2)	1.2	1.13	0.94
63	CYP2C19 (cytochrome P450 family 2 subfamily C member 19)	0.88	0.78	0.89
64	SHCBP1 (SHC binding and spindle associated 1)	1.33	0.97	0.73
65	IGSF21 (immunoglobin superfamily member 21)	1.22	0.9	0.74
66	KRTAP5-9 (keratin associated protein 5-9)	0.9	0.88	0.98
67	HLA-B (major histocompatibility complex, class I, B)	0.75	0.3	0.4
68	SIAH3 (siah E3 ubiquitin protein ligase family member 3)	1	0.86	0.86
